Measurements published in patent US20210332360.
Negatives hold for the conditions tested. Where a protein sequence is shown, tags need not be part of it.

Legend:
Experiment in all cases: binding assay
Settings in all cases: after the 5' primer region all dT replaced by 4 (alpha-D-mannose-triazole-modified C8-alkyne-dU); natural dC; lectin array 0.04-400 nM; only ConA gave strong signal; purified native protein; protein details: RayBiotech Lectin Array 40; label: particle-displayed, or 5'-biotinTEG; single-stranded DNA; variant of 3-1
[1] = biological target: T1, Galanthus nivalis lectin (GNA) (Galanthus nivalis) (UniProt P30617)
T1 sequence (looked up, limits assumed): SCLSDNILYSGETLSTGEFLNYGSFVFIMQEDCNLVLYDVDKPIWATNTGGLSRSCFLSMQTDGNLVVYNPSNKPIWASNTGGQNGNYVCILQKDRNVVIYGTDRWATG

[2] = biological target: T2, Lotus tetragonolobus lectin (LTL) (Lotus tetragonolobus) (UniProt P19664)
T2 sequence (looked up, limits assumed): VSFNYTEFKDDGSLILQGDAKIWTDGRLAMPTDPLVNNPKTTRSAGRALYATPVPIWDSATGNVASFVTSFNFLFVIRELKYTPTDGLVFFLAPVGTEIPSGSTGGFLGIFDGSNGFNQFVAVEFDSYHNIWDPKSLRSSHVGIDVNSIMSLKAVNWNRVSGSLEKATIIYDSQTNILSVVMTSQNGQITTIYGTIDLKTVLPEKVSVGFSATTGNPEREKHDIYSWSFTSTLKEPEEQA

[3] = biological target: T3, Euonymus europaeus lectin (EEL) (Euonymus europaeus) (UniProt B3SV73)
T3 sequence (looked up, limits assumed): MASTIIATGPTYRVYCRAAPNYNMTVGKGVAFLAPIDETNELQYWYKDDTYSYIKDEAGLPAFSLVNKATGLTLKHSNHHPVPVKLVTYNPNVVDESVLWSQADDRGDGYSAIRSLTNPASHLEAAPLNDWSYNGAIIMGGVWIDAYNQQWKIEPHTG

[4] = biological target: T4, Psophocarpus tetragonolobus lectin (PTL) (Psophocarpus tetragonolobus) (UniProt O24313)
T4 sequence (looked up, limits assumed): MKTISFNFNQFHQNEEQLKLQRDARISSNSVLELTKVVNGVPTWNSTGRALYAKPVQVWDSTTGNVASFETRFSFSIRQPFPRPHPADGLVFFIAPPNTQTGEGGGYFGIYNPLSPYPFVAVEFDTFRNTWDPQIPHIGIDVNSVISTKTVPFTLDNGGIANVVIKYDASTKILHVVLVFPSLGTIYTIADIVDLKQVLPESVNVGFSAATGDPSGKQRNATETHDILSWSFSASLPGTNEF

[5] = biological target: T5, Wheat germ agglutinin (WGA) (Triticum vulgaris) (UniProt P10968)
T5 sequence (looked up, limits assumed): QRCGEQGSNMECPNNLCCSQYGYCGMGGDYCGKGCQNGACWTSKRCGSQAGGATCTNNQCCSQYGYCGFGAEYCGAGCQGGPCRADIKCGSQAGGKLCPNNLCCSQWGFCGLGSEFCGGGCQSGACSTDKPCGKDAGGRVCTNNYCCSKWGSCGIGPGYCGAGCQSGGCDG

[6] = biological target: T6, Bauhinia purpurea lectin (BPA) (Bauhinia purpurea) (UniProt P16030)
T6 sequence (looked up, limits assumed): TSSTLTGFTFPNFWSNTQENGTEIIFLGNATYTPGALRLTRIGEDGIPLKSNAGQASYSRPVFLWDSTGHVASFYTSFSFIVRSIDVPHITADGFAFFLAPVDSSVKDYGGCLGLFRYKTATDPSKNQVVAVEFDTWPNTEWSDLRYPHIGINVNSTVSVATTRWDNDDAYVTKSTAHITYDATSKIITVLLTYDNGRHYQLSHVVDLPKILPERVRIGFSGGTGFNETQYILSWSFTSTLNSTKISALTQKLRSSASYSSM

[7] = biological target: T7, Phaseolus lunatus lectin (LBA) (Phaseolus lunatus) (UniProt P16300)
T7 sequence (looked up, limits assumed): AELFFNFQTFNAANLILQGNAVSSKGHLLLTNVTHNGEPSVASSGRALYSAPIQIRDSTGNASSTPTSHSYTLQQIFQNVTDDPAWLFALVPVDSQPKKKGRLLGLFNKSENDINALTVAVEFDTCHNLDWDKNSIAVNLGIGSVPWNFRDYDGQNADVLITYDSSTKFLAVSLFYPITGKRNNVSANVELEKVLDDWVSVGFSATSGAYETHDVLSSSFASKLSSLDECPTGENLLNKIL

[8] = biological target: T8, Wisteria floribunda lectin (WFA) (Wisteria floribunda) (UniProt A0A218PFP3)
T8 sequence (looked up, limits assumed): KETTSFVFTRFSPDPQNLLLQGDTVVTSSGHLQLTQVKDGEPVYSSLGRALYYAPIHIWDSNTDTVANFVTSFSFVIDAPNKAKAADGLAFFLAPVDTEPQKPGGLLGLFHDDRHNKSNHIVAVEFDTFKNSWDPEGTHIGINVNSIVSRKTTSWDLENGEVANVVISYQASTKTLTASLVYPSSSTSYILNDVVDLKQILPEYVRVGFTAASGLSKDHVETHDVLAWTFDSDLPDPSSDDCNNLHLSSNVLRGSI

[9] = biological target: T9, Jacalin (Artocarpus integrifolia) (UniProt P18670)
T9 sequence (looked up, limits assumed): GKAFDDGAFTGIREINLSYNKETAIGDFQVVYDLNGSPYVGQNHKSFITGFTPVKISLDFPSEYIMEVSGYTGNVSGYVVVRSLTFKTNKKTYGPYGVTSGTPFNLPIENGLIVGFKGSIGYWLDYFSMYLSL

[10] = biological target: T10, Ulex europaeus lectin I (UEA-I) (Ulex europaeus) (UniProt P22972)
T10 sequence (looked up, limits assumed): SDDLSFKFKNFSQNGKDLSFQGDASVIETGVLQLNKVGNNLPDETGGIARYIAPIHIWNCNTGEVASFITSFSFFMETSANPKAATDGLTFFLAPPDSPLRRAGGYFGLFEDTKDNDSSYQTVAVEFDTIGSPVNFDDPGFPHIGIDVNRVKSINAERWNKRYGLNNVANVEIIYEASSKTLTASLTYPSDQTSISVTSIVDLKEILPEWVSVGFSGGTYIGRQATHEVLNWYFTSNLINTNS

[11] = biological target: T11, Aleuria aurantia lectin (AAL) (Aleuria aurantia) (UniProt P18891)
T11 sequence (looked up, limits assumed): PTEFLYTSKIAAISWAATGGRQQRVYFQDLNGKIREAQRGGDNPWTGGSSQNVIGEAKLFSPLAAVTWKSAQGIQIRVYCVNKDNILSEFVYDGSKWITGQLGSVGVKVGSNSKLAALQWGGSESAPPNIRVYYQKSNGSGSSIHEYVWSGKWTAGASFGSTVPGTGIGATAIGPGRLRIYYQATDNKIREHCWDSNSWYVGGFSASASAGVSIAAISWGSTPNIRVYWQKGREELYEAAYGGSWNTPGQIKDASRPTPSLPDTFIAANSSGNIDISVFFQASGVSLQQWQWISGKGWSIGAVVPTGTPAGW

Measured: binding result

GATCCCAGTCCGAAGTAATCGTTGCATCTGCACGACTGGTGAGCTTGAGTGGCAGAAGAACTTGTGCAAACGGCTATAGG [3-1m]
no binding: [1] | [2] | [3] | [4] | [5] | [6] | [7] | [8] | [9] | [10] | [11]
